# Source: the supplement of paper PMC12819154, “High-throughput peptide-centric local stability assay extends protein–ligand identification to membrane proteins, tissues and bacteria” (Nature Structural & Molecular Biology, 2025)
# The chains behind the UniProt entries cited, without tags or fusion partners. Where a name states a change or a piece, a line headed by the entry shows the natural chain unless it says otherwise.
# UniProt Q9DBR7: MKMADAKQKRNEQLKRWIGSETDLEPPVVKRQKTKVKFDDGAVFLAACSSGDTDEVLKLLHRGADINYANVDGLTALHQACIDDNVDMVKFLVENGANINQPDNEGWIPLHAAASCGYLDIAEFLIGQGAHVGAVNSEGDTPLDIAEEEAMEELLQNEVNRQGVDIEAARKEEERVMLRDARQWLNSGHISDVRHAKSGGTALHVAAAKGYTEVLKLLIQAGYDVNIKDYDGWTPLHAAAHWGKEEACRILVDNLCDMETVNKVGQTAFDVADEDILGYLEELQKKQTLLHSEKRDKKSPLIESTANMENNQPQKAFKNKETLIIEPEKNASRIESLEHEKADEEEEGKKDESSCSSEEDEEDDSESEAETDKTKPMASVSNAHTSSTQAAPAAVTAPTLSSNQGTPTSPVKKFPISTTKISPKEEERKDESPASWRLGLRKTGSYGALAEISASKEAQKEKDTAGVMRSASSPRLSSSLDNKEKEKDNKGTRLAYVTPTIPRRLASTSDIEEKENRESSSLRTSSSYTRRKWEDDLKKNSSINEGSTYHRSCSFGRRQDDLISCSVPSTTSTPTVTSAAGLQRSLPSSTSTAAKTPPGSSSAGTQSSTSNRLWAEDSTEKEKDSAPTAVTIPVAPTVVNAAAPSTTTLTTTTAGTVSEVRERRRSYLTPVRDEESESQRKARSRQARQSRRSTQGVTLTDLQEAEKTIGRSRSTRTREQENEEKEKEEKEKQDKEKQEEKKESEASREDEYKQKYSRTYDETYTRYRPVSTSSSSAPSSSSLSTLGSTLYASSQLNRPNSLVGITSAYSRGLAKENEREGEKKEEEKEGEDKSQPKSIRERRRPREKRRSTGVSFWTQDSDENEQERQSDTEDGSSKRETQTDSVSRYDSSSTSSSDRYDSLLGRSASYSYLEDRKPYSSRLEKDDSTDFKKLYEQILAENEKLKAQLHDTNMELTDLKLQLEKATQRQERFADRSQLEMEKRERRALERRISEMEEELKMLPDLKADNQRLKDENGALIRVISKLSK
# UniProt Q9DB16: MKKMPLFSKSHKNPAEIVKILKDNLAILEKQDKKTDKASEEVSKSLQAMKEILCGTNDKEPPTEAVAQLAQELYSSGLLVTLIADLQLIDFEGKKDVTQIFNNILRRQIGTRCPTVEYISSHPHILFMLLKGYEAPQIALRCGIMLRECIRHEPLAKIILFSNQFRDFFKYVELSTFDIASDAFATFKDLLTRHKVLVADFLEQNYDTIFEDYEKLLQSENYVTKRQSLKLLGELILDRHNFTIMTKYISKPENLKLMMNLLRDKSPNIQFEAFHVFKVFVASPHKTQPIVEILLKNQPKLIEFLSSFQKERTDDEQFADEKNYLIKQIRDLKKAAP
# UniProt Q9D8V0: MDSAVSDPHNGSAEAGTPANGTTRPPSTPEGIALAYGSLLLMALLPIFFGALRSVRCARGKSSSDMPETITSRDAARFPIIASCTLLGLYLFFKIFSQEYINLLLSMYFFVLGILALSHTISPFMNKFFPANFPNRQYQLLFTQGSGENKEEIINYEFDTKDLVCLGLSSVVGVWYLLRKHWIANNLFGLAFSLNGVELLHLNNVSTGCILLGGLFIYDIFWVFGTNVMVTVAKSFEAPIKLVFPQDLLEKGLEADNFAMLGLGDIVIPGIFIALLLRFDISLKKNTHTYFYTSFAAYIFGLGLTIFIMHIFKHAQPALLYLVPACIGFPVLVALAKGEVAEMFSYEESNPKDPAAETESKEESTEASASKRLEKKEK
# UniProt Q9D816: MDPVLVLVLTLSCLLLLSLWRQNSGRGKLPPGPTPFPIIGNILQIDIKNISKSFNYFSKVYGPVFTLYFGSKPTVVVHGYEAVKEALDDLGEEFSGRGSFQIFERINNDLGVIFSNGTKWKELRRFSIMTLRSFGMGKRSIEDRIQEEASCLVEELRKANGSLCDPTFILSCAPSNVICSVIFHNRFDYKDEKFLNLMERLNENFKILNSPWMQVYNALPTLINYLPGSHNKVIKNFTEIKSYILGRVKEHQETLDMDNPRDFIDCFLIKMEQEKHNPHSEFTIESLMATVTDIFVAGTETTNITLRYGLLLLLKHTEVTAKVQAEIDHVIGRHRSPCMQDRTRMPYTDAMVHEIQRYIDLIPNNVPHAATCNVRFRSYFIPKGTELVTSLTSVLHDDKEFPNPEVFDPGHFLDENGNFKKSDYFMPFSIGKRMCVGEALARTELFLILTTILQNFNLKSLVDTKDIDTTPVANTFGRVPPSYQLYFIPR
# UniProt Q9D1I5: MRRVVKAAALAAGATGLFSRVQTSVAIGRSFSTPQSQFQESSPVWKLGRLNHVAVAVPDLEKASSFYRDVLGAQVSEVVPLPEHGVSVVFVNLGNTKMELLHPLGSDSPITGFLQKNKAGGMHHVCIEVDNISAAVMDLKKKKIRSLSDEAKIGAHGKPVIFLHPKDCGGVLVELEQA
# UniProt Q9D0B6: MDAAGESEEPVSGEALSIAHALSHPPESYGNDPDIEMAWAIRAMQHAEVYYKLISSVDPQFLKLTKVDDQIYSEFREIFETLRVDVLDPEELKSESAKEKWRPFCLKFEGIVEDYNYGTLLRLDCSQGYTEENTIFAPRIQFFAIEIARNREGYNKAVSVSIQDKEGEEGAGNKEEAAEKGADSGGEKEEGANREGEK
# UniProt Q9D8X1: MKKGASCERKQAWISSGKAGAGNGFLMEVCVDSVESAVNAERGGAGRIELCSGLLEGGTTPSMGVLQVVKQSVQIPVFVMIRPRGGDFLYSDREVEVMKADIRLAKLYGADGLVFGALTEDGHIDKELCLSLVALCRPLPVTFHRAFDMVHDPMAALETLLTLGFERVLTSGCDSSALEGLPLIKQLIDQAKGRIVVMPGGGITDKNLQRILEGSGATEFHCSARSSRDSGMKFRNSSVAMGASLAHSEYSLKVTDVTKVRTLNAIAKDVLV
# UniProt Q9D819: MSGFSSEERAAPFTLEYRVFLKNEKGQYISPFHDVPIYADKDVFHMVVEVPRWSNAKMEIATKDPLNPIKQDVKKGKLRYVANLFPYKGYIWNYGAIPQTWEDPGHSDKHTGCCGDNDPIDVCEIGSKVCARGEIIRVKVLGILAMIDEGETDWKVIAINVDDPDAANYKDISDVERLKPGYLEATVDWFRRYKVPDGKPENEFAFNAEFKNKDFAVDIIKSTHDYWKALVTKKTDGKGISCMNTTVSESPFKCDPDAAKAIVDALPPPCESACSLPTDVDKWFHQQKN
# UniProt Q9CZS1: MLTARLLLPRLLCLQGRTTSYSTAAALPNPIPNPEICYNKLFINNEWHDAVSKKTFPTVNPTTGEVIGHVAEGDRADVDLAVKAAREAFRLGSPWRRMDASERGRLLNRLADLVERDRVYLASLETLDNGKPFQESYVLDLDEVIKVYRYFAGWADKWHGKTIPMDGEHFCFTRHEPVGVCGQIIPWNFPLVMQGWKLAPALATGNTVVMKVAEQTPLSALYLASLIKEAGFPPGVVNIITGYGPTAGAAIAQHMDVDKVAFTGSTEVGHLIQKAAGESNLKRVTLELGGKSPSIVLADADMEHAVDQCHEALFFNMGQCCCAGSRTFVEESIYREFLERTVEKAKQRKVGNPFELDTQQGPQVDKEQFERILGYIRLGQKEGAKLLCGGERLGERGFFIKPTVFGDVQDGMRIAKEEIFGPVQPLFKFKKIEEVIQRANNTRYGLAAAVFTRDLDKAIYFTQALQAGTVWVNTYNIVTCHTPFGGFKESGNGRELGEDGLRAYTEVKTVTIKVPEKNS
# UniProt Q9DAM5: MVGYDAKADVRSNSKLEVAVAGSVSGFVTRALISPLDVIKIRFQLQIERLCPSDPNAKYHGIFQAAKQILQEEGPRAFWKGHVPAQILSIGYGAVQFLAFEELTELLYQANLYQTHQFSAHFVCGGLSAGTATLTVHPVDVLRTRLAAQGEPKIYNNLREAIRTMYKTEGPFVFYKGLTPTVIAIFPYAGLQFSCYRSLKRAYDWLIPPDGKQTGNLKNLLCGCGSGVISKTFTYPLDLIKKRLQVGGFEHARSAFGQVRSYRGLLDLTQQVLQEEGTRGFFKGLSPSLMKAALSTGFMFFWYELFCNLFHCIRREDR
# UniProt Q9D0J8: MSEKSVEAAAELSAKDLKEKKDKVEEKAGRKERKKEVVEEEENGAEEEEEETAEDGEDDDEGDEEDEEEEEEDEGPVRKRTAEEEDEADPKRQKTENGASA
# UniProt Q9D5V6: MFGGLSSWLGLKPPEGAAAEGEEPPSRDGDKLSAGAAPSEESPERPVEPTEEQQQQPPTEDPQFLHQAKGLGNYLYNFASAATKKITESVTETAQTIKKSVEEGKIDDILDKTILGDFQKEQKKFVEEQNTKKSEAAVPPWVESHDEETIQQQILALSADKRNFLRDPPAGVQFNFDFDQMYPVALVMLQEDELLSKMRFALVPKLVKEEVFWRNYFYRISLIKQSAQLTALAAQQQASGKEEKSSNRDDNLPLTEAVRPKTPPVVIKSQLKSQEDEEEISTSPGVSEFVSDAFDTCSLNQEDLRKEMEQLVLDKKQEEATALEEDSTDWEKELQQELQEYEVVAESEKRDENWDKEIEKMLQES
# UniProt Q9D110: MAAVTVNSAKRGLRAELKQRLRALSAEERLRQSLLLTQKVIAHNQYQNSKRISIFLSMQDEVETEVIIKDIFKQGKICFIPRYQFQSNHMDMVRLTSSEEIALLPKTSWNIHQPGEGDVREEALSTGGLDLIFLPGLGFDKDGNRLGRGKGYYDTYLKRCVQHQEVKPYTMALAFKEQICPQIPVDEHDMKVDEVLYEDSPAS
# UniProt Q9D727: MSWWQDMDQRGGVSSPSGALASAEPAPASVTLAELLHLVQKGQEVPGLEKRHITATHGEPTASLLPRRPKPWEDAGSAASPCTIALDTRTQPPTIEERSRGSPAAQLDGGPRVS
# UniProt Q9D710, whole entry: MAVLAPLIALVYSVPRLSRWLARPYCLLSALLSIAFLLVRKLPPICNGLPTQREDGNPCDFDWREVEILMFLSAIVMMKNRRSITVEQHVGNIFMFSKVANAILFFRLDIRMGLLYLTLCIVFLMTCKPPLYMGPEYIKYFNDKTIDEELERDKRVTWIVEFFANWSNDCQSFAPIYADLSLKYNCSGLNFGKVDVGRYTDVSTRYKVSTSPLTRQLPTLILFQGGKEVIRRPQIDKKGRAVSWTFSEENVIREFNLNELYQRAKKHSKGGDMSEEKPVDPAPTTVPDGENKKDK
# UniProt Q9D967: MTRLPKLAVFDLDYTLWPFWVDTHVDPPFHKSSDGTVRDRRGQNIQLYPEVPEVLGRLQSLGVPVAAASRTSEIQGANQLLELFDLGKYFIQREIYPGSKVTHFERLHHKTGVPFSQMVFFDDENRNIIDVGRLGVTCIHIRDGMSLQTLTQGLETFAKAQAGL
# UniProt Q9DB26: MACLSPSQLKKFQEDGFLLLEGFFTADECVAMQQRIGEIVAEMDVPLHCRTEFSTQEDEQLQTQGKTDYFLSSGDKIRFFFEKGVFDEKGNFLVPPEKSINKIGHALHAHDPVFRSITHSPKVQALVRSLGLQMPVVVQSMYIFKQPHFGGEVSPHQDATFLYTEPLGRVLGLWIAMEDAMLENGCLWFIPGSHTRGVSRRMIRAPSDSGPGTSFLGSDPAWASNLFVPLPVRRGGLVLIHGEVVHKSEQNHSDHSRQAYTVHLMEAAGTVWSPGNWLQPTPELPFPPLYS
# UniProt Q9D5V5: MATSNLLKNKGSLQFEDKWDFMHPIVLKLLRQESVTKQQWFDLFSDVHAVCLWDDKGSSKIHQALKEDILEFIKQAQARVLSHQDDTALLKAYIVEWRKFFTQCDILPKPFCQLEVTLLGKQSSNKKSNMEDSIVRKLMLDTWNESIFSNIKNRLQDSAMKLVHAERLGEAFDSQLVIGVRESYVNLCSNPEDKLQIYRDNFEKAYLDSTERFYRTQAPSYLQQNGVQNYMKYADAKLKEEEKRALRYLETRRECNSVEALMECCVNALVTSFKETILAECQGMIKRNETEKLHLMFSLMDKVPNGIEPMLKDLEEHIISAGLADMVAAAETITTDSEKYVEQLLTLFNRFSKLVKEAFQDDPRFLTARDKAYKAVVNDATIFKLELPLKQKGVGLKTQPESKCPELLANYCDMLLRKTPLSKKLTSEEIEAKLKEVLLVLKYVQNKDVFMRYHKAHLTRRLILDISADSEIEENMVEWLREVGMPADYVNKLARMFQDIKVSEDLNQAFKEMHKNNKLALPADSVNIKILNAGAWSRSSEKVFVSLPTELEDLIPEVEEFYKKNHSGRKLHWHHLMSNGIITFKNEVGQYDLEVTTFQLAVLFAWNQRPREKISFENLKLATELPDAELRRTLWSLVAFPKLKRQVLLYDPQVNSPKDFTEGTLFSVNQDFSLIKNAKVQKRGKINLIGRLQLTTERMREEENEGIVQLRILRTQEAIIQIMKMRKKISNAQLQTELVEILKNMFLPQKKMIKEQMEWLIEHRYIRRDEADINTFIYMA
# UniProt Q9D384: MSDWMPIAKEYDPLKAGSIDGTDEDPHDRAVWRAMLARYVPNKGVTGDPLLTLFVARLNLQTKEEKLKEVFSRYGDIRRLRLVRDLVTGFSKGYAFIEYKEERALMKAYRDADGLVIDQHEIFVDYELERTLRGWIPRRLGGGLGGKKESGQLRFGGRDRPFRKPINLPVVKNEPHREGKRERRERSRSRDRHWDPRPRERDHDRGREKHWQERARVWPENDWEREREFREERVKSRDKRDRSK
# This is one part of the list. Most entries show no effect beyond the scatter of the controls.
# Compound: CN[C@@H]1C[C@H]2O[C@@](C)([C@@H]1OC)n1c3ccccc3c3c4c(c5c6ccccc6n2c5c31)C(=O)NC4 [staurosporine]
# Assay: log2 fold change of pooled soluble protein (PISA), ligand vs vehicle (log2 ratio); higher = more thermally stabilized
# Details: ligand concentration: 20 uM; assay format: PISA pool 52.9/55.5/58.6 C
row,Target,log2 fold change of pooled soluble protein
1,UniProt Q9DAM7,-0.175
2,UniProt Q9DBR7,-0.0786
3,UniProt Q9DB16,-0.146
4,UniProt Q9D8E6,-0.227
5,UniProt Q9D1Q4,-0.182
6,UniProt Q9D8V0,0.147
7,UniProt Q9DBG1,0.13
8,UniProt Q9D1Q6,-0.0584
9,UniProt Q9D816,0.478
10,UniProt Q9D051,-0.166
11,UniProt Q9D1I5,-0.0344
12,UniProt Q9D0B6,-0.155
13,UniProt Q9D892,-0.192
14,UniProt Q9DBR3,0.0731
15,UniProt Q9D8X1,0.0447
16,UniProt Q9D819,-0.0543
17,UniProt Q9CZS1,-0.132
18,UniProt Q9DAM5,-0.0715

row,Target,log2 fold change of pooled soluble protein
1,UniProt Q9D1H8,-0.101
2,UniProt Q9D0J8,-0.0795
3,UniProt Q9D8L5,-0.201
4,UniProt Q9D2R0,0.000379
5,UniProt Q9D7X8,0.0498
6,UniProt Q9D5V6,-0.195
7,UniProt Q9D110,-0.0288
8,UniProt Q9D8S9,-0.0992
9,UniProt Q9DBA8,0.0234
10,UniProt Q9D727,0.0859
11,UniProt Q9D710,-0.223
12,UniProt Q9D967,-0.124
13,UniProt Q9D4C5,0.0258
14,UniProt Q9DB26,0.113
15,UniProt Q9D5V5,0.157
16,UniProt Q9D2G2,-0.0169
17,UniProt Q9CZ13,-0.0871
18,UniProt Q9D384,-0.226

# Given bar-delimited: part of the list above.
row | Target | log2 fold change of pooled soluble protein
11 | UniProt Q9D1I5 | -0.0344
15 | UniProt Q9D5V5 | 0.157
